Laboratory results: PubChem BioAssay AID1259308 (NCATS, 2017)
Aim: 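Knock-downs that increase output of a recombinant reporter protein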 (primary screen). System: human HEK293 embryonic kidney cells stably expressing firefly luciferase (HEK-CMV-Luc2-Hygro). Knock-down reagent: single siRNA against human genes, 0.8 pmol siRNA per well. Timing: 72 h. Measurement: 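Luciferase light (ONE-Glo) measured on one replicate plate set and viability (CellTiter-Glo) on the other, scaled to a negative control siRNA, with robust z-scores and luciferase per cell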. Scale: total luciferase, z-score and total luciferase, % of control: higher = more reporter protein produced. Rule for the call: 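Active when the median/MAD z-score for overall luciferase is greater than 3; a gene was taken forward for validation with new siRNAs if at least two of its three siRNAs passed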. Calls: active = raised luciferase; inactive = no rise.
The deposit covers about 59,000 reagents; shown is a part drawn at random. About 1,510 of them (2.6%) count as active. 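Calls use total luciferase alone and ignore viability, so some active siRNAs may act by altering cell number.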 Unmarked entries are inactive. The numbers tell different reagents against one gene apart. Further read-outs or replicates are left out here.

LINC00442 (GeneID 348021) #1: total luciferase, z-score = -0.76; total luciferase, % of control = 66.8
LINC00442 (GeneID 348021) #2: total luciferase, z-score = 1.14; total luciferase, % of control = 105
LINC00442 (GeneID 348021) #3: total luciferase, z-score = -0.161; total luciferase, % of control = 78.7
RHBDD2 (GeneID 57414) #1: total luciferase, z-score = -1.27; total luciferase, % of control = 56.6
RHBDD2 (GeneID 57414) #2: total luciferase, z-score = -0.766; total luciferase, % of control = 66.6
RHBDD2 (GeneID 57414) #3: total luciferase, z-score = -0.127; total luciferase, % of control = 79.4
ZFP69 (GeneID 339559) #1: total luciferase, z-score = -0.447; total luciferase, % of control = 73
ZFP69 (GeneID 339559) #2: total luciferase, z-score = 0.0841; total luciferase, % of control = 83.6
ZFP69 (GeneID 339559) #3: total luciferase, z-score = 0.0768; total luciferase, % of control = 83.4
ZFAND2B (GeneID 130617) #1: total luciferase, z-score = -2; total luciferase, % of control = 42.1
ZFAND2B (GeneID 130617) #2: total luciferase, z-score = 3.18 (active); total luciferase, % of control = 145
ZFAND2B (GeneID 130617) #3: total luciferase, z-score = 0.825; total luciferase, % of control = 98.3
MTMR10 (GeneID 54893) #1: total luciferase, z-score = 0.37; total luciferase, % of control = 89.2
MTMR10 (GeneID 54893) #2: total luciferase, z-score = 0.927; total luciferase, % of control = 100
MTMR10 (GeneID 54893) #3: total luciferase, z-score = -1.38; total luciferase, % of control = 54.4
CASTOR3P (GeneID 352954) #1: total luciferase, z-score = 0.838; total luciferase, % of control = 98.6
CASTOR3P (GeneID 352954) #2: total luciferase, z-score = -1.01; total luciferase, % of control = 61.8
CASTOR3P (GeneID 352954) #3: total luciferase, z-score = -0.114; total luciferase, % of control = 79.6
ABHD1 (GeneID 84696) #1: total luciferase, z-score = -1.25; total luciferase, % of control = 57
ABHD1 (GeneID 84696) #2: total luciferase, z-score = 0.563; total luciferase, % of control = 93.1
ABHD1 (GeneID 84696) #3: total luciferase, z-score = -0.514; total luciferase, % of control = 71.7

Reagents listed so far marked active (1):
ZFAND2B (GeneID 130617) #2: total luciferase, z-score = 3.18 (active); total luciferase, % of control = 145
